This is one part of the list.
Tests used:
Test in all cases: log2 fold change, soluble protein after heating vs DMSO (PISA); higher = thermal stabilisation; K562 cells, 10 uM, 30 min; active = over 0.2 and 3.5 SD of the protein, either way, in both replicates (recomputed)
[1] = compound: CC1=C(C=C(C=C1)NC(=O)C2=CC(=CC=C2)C(C)(C)C#N)NC3=CC4=C(C=C3)N=CN(C4=O)C
How it was run: (§1)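 Soluble protein was quantified by TMTpro 16plex LC-MS/MS after channel sums were equalised. It was obtained as the supernatant after 21,000xg for 90 min from pooled aliquots of K562 cells (2×10^6 cells/mL, 10 μM compound, 30 min) heated for 3 min across 48°C-58°C and extracted in PBS with 0.5% NP-40 at 4°C. Thermal stability values are relative to control samples and come from duplicates. They are given as log2 fold changes.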

Sequences of proteins named here, by UniProt entry; tags and fusion partners are left off. A change or cut given only in a name is not applied to a line headed by its entry.
UniProt O60678: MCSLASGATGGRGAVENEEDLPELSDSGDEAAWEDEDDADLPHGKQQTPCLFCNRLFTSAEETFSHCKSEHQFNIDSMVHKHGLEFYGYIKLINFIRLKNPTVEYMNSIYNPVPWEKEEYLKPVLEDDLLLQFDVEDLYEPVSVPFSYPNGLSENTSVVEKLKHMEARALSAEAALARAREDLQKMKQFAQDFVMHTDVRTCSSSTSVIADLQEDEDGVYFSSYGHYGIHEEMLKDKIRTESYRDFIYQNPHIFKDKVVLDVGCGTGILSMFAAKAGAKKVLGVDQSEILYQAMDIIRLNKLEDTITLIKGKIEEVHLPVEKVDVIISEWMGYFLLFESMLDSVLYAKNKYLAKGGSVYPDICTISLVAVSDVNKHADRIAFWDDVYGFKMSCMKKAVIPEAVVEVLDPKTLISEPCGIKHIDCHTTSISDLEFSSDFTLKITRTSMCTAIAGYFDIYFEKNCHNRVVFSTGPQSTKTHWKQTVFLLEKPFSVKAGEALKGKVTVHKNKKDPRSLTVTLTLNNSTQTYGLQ
UniProt Q5H9R7: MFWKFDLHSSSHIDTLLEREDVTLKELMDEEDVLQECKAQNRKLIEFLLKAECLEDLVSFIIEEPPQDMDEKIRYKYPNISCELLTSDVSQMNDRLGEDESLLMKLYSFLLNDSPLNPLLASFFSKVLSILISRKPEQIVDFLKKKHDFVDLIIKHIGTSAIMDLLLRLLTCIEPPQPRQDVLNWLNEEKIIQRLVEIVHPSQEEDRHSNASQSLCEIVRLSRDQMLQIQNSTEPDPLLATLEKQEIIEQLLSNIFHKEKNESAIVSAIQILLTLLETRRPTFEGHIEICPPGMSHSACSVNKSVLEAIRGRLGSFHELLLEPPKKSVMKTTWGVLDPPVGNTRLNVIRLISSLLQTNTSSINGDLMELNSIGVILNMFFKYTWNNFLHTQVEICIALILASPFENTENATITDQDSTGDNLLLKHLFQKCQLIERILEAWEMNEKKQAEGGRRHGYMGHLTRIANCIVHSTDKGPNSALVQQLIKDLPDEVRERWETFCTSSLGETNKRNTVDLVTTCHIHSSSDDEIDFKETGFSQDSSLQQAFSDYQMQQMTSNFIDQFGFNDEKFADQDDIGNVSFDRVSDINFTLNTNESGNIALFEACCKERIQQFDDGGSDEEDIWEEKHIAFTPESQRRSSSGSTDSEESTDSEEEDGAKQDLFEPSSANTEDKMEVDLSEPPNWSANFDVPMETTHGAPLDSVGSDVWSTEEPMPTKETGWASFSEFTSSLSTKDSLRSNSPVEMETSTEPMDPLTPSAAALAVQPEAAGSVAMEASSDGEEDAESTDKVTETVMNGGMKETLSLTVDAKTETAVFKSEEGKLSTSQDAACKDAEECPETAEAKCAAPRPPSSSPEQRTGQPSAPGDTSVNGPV
UniProt O43663: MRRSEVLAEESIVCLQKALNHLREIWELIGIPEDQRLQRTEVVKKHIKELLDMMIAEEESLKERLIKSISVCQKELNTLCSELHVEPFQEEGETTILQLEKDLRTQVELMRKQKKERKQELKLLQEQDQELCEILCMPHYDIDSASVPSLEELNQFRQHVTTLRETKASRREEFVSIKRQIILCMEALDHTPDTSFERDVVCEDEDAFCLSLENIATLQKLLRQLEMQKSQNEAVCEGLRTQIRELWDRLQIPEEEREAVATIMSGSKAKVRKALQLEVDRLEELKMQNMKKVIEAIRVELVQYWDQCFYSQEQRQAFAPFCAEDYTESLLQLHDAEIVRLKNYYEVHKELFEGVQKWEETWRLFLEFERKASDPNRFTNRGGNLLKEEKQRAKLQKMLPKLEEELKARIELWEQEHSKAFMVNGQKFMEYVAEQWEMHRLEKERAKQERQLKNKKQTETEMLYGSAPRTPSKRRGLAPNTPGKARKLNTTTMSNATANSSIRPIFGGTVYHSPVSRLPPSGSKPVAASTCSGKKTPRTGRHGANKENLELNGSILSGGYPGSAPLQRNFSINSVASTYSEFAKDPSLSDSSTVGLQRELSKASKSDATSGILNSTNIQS
UniProt Q9UMR5: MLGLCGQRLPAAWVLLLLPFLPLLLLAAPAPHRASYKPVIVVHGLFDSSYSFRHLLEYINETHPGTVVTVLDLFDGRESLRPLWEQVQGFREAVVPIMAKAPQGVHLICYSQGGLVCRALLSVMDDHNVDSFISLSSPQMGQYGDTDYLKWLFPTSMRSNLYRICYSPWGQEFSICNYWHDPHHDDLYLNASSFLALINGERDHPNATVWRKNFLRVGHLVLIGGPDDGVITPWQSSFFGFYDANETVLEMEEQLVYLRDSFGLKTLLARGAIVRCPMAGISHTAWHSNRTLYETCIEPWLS
UniProt P41743, whole entry, looked up: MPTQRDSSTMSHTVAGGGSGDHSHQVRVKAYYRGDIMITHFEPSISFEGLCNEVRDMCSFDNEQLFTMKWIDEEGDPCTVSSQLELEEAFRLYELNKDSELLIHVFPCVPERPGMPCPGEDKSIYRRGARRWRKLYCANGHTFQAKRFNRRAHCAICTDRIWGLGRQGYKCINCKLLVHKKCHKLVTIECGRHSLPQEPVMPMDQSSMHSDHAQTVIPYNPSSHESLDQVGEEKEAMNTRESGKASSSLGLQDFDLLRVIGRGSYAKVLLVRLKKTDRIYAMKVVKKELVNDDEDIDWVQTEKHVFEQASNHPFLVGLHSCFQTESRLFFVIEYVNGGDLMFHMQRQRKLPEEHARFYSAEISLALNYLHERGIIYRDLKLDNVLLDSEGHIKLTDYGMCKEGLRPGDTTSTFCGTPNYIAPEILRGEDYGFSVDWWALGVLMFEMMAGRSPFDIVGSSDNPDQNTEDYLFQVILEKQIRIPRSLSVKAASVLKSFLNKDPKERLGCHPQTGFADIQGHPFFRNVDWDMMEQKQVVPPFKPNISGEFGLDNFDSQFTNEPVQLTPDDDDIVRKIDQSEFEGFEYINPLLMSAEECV
UniProt P32119: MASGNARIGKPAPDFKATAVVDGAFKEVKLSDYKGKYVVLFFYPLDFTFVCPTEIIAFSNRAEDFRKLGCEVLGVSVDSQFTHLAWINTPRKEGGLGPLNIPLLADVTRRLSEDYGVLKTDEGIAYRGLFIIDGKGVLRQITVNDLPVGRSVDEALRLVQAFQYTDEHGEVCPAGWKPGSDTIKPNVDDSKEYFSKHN
UniProt Q8TAP8: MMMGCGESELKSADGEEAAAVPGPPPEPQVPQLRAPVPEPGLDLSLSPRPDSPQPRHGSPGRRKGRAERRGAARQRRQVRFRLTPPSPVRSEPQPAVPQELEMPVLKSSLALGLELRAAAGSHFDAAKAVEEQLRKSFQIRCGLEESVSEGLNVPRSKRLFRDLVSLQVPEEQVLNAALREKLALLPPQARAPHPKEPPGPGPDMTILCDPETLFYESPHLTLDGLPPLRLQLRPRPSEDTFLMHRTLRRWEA
UniProt Q9NR22, whole entry, looked up: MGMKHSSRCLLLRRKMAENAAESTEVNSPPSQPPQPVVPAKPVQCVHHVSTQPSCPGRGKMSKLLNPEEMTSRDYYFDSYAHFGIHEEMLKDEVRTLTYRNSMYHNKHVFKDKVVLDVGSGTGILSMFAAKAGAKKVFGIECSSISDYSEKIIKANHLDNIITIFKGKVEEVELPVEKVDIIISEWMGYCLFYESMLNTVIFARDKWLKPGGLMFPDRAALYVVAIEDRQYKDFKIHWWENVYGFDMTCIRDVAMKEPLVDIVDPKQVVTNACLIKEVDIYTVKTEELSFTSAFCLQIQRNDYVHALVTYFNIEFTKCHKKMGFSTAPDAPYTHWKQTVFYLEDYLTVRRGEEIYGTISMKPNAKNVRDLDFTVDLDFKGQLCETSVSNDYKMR
UniProt P55345: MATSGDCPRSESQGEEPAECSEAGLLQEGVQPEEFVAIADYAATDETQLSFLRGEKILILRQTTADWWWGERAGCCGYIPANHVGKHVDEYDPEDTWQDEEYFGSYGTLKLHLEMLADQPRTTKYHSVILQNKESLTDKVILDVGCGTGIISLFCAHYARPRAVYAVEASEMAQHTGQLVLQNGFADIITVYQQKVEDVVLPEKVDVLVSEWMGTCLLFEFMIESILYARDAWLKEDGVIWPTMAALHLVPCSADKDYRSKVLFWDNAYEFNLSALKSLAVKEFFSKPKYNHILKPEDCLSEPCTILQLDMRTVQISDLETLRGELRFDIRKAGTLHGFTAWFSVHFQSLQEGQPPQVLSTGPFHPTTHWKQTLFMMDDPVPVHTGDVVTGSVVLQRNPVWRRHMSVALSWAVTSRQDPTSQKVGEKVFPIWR
UniProt P30044: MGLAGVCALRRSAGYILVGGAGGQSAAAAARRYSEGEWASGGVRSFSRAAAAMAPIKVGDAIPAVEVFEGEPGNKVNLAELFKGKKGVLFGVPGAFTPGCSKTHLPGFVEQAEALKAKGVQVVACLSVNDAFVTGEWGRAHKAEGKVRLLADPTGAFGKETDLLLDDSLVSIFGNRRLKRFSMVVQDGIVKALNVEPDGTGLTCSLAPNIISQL
UniProt Q15172: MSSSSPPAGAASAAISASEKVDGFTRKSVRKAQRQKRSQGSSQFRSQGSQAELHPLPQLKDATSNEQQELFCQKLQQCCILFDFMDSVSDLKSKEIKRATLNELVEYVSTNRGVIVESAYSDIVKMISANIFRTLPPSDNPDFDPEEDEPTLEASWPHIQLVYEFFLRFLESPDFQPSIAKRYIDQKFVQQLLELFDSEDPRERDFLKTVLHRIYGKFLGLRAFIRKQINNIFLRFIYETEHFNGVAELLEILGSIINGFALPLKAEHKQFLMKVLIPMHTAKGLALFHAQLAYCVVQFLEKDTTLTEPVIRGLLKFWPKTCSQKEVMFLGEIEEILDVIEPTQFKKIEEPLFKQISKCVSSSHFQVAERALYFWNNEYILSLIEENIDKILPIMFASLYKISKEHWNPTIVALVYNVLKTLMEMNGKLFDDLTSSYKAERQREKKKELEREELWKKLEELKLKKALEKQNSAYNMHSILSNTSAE
UniProt O60828: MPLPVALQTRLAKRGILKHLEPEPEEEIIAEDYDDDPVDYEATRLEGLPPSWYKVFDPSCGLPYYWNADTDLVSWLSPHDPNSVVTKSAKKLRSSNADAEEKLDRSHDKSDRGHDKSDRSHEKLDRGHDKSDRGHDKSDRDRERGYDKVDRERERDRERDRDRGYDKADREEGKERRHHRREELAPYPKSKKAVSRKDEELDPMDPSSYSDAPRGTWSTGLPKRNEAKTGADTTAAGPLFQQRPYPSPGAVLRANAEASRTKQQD
UniProt Q06830: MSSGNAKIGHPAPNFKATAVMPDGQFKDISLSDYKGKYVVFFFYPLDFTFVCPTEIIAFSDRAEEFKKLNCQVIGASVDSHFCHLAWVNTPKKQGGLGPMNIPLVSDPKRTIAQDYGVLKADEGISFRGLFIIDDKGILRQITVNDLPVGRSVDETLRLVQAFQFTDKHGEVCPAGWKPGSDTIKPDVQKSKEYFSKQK
UniProt P60510: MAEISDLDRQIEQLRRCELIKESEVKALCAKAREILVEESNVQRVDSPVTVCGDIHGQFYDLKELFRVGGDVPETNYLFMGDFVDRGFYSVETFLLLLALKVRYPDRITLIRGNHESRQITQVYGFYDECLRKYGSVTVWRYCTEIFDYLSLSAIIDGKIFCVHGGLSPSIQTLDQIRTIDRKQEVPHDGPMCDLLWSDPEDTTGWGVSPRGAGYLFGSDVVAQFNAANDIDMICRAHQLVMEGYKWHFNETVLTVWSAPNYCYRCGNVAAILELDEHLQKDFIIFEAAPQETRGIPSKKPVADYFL
UniProt O43741: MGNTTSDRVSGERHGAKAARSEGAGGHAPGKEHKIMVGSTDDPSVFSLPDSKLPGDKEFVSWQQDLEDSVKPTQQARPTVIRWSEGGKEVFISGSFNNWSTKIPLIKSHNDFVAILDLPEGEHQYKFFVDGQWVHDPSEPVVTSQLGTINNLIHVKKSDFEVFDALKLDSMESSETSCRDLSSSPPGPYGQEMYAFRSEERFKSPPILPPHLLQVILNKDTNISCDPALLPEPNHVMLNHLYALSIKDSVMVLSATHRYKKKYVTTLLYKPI
UniProt Q13362, whole entry, looked up: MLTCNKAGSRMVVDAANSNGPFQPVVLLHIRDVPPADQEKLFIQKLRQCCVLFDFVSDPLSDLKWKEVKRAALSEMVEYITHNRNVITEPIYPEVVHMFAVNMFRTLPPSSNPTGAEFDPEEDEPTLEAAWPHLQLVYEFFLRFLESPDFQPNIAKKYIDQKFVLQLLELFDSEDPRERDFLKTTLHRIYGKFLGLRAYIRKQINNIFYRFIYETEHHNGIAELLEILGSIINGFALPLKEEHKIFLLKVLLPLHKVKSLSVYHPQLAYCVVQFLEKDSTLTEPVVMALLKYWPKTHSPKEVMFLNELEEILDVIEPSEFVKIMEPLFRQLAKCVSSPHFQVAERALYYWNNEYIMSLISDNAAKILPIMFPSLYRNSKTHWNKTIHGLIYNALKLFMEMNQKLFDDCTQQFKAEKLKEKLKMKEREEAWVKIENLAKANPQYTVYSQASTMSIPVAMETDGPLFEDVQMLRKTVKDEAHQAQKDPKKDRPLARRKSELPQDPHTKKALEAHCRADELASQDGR

[2] = compound: CC1=C(C=C(C=C1)NC(=O)C2=CC(=CC=C2)N(C)C)NC(=O)C3=CC=C(C=C3)O
How it was run: as §1

[3] = compound: CC1=CC=C(C=C1)SC2=C3C=C(SC3=CN=C2)C(=O)N
How it was run: as §1

[4] = compound: CC1=NC(=CC=C1)C2=C(N=C(N2)C(C)(C)C)C3=CC4=NC=CN=C4C=C3
How it was run: as §1

Nexturastat A = compound: CCCCN(Cc1ccc(C(=O)NO)cc1)C(=O)Nc1ccccc1 [Nexturastat A]
How it was run: as §1

vemurafenib = compound: CCCS(=O)(=O)Nc1ccc(F)c(C(=O)c2c[nH]c3ncc(-c4ccc(Cl)cc4)cc23)c1F [vemurafenib]
How it was run: as §1

[5] = compound: CCCS(=O)(=O)Nc1ccc(F)c(C(=O)c2c[nH]c3ncc(Cl)cc23)c1F
How it was run: as §1

[6] = compound: CCCc1cc(C)[nH]c(=O)c1CNC(=O)c1cc(-c2ccnc(N3CCN(C)CC3)c2)cc2c1cnn2C(C)C
How it was run: as §1

givinostat = compound: CCN(CC)Cc1ccc2cc(COC(=O)Nc3ccc(C(=O)NO)cc3)ccc2c1 [givinostat]
How it was run: as §1

barasertib = compound: CCN(CCCOc1ccc2c(Nc3cc(CC(=O)Nc4cccc(F)c4)[nH]n3)ncnc2c1)CCOP(=O)(O)O [barasertib]
How it was run: as §1

Measured: log2 fold change

PPP1R18 (UniProt Q6NYC8)
inactive: [1] 0.028 | [2] 0.004 | [3] -0.043 | [4] 0.104 | Nexturastat A 0.011 | vemurafenib 0.064 | [5] 0.052 | [6] -0.106 | givinostat 0.009 | barasertib 0.001

PRMT3 (UniProt O60678)
inactive: [1] 0.016 | [2] -0.025 | [3] 0.044 | [4] 0.076 | Nexturastat A -0.026 | vemurafenib 0.056 | [5] 0.055 | [6] 0 | givinostat -0.013 | barasertib 0.035

PRKDC (UniProt P78527)
inactive: [1] 0.014 | [2] -0.017 | [3] 0.036 | [4] 0.025 | Nexturastat A -0.063 | vemurafenib 0.018 | [5] 0.046 | [6] -0.005 | givinostat -0.005 | barasertib 0.025

PPP6R3 isoform 5 (UniProt Q5H9R7)
inactive: [1] 0.015 | [2] -0.002 | [3] -0.002 | [4] 0.003 | Nexturastat A -0.005 | vemurafenib -0.004 | [5] -0.007 | [6] -0.016 | givinostat -0.016 | barasertib 0.004

PRC1 (UniProt O43663)
inactive: [1] 0.016

PRSS21 (UniProt Q9Y6M0)
inactive: [1] -0.041 | [2] -0.03 | [3] 0.019 | [4] 0.056 | Nexturastat A -0.016 | vemurafenib -0.038 | [5] -0.029 | [6] 0.008 | givinostat -0.003 | barasertib -0.027

PRMT9 (UniProt Q6P2P2)
inactive: [1] -0.051 | [2] 0 | [3] 0.028 | [4] -0.004 | Nexturastat A -0.19 | vemurafenib 0.007 | [5] 0.059 | [6] -0.033 | givinostat 0.001 | barasertib 0.203

PPT2 isoform 3 (UniProt Q9UMR5)
inactive: [1] -0.064 | [2] -0.002 | [3] 0.025 | [4] 0.078 | Nexturastat A 0 | vemurafenib -0.001 | [5] 0.052 | [6] 0.002 | givinostat 0.041 | barasertib -0.017

PRKCD (UniProt Q05655)
inactive: [1] -0.015 | [2] -0.025 | [3] -0.012 | [4] -0.016 | Nexturastat A -0.032 | vemurafenib 0.015 | [5] 0.013 | [6] -0.045 | givinostat -0.021 | barasertib 0.023

PRKCI (UniProt P41743)
inactive: [1] -0.005 | [2] -0.013 | [3] -0.027 | [4] 0.038 | Nexturastat A 0.041 | vemurafenib 0.015 | [5] 0.026 | [6] -0.028 | givinostat -0.052 | barasertib 0.016

PRKCSH (UniProt K7ELL7)
inactive: [1] -0.031 | [2] 0.045 | [3] 0.057 | [4] -0.024 | Nexturastat A 0.019 | vemurafenib 0.003 | [5] 0.028 | [6] -0.284 | givinostat 0.159 | barasertib -0.042

PRIM1 (UniProt P49642)
inactive: [1] 0.02 | [2] -0.083 | [3] 0.061 | [4] -0.004 | Nexturastat A 0.162 | vemurafenib 0.042 | [5] 0.1 | [6] 0.074 | givinostat 0.031 | barasertib 0.056

PRDX2 (UniProt P32119)
inactive: [1] 0.005 | [2] -0.01 | [3] 0.068 | [4] 0.022 | Nexturastat A -0.095 | vemurafenib -0.022 | [5] -0.024 | [6] -0.036 | givinostat -0.015 | barasertib 0.021

PPOX (UniProt P50336)
inactive: [1] 0.402 | [2] -0.014 | [3] 0.043 | [4] 0.099 | Nexturastat A -0.232 | vemurafenib 0.065 | [5] 0.046 | [6] 0.184 | givinostat -0.063 | barasertib 0

PPP1R35 (UniProt Q8TAP8)
inactive: [1] -0.011 | [2] 0.065 | [3] 0.025 | [4] 0.034 | Nexturastat A -0.009 | vemurafenib -0.049 | [5] 0.008 | [6] -0.027 | givinostat 0.112 | barasertib -0.074

PRMT8 (UniProt Q9NR22)
inactive: [1] 0.285 | [2] -0.033 | [3] 0.097 | [4] 0.016 | Nexturastat A -0.125 | vemurafenib 0.028 | [5] 0.156 | [6] -0.009 | givinostat -0.043 | barasertib 0.031

PPME1 (UniProt Q9Y570)
inactive: [1] -0.007 | [2] -0.008 | [3] 0.012 | [4] 0.033 | Nexturastat A -0.062 | vemurafenib 0.006 | [5] 0.057 | [6] -0.019 | givinostat -0.019 | barasertib 0.008

PPP6R1 (UniProt Q9UPN7)
inactive: [1] 0.014 | [2] 0.023 | [3] 0.022 | [4] 0.036 | Nexturastat A -0.1 | vemurafenib 0.08 | [5] 0.018 | [6] -0.001 | givinostat -0.018 | barasertib -0.025

PRMT2 (UniProt P55345)
inactive: [1] 0.289

PRDX5 (UniProt P30044)
inactive: [1] -0.013 | [2] 0.005 | [3] 0.009 | [4] -0.011 | Nexturastat A -0.026 | vemurafenib -0.032 | [5] -0.023 | [6] -0.046 | givinostat -0.027 | barasertib -0.002

PPP2R5A (UniProt Q15172)
inactive: [1] -0.014 | [2] -0.039 | [3] 0.032 | [4] 0.051 | Nexturastat A -0.017 | vemurafenib 0.061 | [5] 0.146 | [6] -0.003 | givinostat 0.026 | barasertib 0.002

PQBP1 (UniProt O60828)
inactive: [1] -0.051 | [2] 0.005 | [3] -0.045 | [4] -0.024 | Nexturastat A -0.018 | vemurafenib 0.057 | [5] -0.058 | [6] -0.009 | givinostat -0.001 | barasertib -0.024

PPP1R14B (UniProt Q96C90)
inactive: [1] -0.117 | [2] 0.009 | [3] 0.04 | [4] 0.137 | Nexturastat A 0.06 | vemurafenib 0.007 | [5] -0.014 | [6] -0.009 | givinostat -0.015 | barasertib 0.021

PRDX1 (UniProt Q06830)
inactive: [1] -0.003 | [2] -0.003 | [3] -0.005 | [4] 0.025 | Nexturastat A -0.054 | vemurafenib 0.011 | [5] -0.012 | [6] -0.023 | givinostat -0.025 | barasertib 0.014

PRKAR1B (UniProt P31321)
inactive: [1] 0.102 | [2] -0.019 | [3] 0.004 | [4] -0.057 | Nexturastat A 0.015 | vemurafenib 0.04 | [5] -0.038 | [6] 0.133 | givinostat -0.036 | barasertib -0.12

PPP4R1 (UniProt Q8TF05)
inactive: [1] -0.003 | [2] -0.024 | [3] -0.002 | [4] 0.037 | Nexturastat A -0.05 | vemurafenib 0.024 | [5] 0 | [6] -0.035 | givinostat 0.014 | barasertib 0.029

PPP4C (UniProt P60510)
inactive: [1] 0.02 | [2] 0.025 | [3] -0.002 | [4] -0.007 | Nexturastat A -0.062 | vemurafenib -0.066 | [5] -0.017 | [6] -0.123 | givinostat 0.024 | barasertib 0.001

PRKCSH (UniProt P14314)
inactive: [1] 0.01 | [2] 0.03 | [3] 0.032 | [4] 0.046 | Nexturastat A 0.02 | vemurafenib 0.008 | [5] 0.005 | [6] -0.015 | givinostat -0.011 | barasertib -0.005

PRKAB2 (UniProt O43741)
inactive: [1] 0.122 | [2] -0.015 | [3] 0.106 | [4] 0.118 | Nexturastat A -0.079 | vemurafenib 0.074 | [5] 0.177 | [6] -0.18 | givinostat 0.027 | barasertib 0.067

Reprinted from above (2 entries):
PPP4C (UniProt P60510)
inactive: [1] 0.02 | [2] 0.025 | [3] -0.002 | [4] -0.007 | Nexturastat A -0.062 | vemurafenib -0.066 | [5] -0.017 | [6] -0.123 | givinostat 0.024 | barasertib 0.001

PRKCSH (UniProt P14314)
inactive: [1] 0.01 | [2] 0.03 | [3] 0.032 | [4] 0.046 | Nexturastat A 0.02 | vemurafenib 0.008 | [5] 0.005 | [6] -0.015 | givinostat -0.011 | barasertib -0.005

Additional entries

PRKCQ (UniProt Q04759)
inactive: [1] 0.013 | [2] -0.043 | [3] 0.073 | [4] -0.004 | Nexturastat A -0.055 | vemurafenib 0.015 | [5] 0.065 | [6] -0.065 | givinostat 0.052 | barasertib 0.03

PPP2R5C isoform 4 (UniProt Q13362)
inactive: [1] -0.016 | [2] 0.004 | [3] 0.014 | [4] -0.064 | Nexturastat A 0.016 | vemurafenib 0.074 | [5] -0.004 | [6] -0.027 | givinostat -0.001 | barasertib 0.057
